Results as given in paper PMC9077921.
No constants are given. Whether binding was seen depends on the method and setting. Binding seen in cells or lysates may run through a third protein. Some entries that bind do so weakly or less than the wild type.

By UniProt entry, the sequences of proteins in these tests, tags left out.
UniProt Q9Y4X4: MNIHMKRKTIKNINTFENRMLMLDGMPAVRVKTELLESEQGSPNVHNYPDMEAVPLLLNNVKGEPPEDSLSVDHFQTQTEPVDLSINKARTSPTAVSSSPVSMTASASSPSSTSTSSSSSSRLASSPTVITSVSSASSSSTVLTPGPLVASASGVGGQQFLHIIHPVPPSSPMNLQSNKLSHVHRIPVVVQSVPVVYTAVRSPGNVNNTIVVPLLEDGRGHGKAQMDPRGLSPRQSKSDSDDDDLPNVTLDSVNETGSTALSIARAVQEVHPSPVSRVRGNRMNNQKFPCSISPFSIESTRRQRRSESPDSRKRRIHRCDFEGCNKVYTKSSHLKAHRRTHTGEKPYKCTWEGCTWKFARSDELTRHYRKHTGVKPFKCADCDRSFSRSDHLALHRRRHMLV
UniProt Q09472: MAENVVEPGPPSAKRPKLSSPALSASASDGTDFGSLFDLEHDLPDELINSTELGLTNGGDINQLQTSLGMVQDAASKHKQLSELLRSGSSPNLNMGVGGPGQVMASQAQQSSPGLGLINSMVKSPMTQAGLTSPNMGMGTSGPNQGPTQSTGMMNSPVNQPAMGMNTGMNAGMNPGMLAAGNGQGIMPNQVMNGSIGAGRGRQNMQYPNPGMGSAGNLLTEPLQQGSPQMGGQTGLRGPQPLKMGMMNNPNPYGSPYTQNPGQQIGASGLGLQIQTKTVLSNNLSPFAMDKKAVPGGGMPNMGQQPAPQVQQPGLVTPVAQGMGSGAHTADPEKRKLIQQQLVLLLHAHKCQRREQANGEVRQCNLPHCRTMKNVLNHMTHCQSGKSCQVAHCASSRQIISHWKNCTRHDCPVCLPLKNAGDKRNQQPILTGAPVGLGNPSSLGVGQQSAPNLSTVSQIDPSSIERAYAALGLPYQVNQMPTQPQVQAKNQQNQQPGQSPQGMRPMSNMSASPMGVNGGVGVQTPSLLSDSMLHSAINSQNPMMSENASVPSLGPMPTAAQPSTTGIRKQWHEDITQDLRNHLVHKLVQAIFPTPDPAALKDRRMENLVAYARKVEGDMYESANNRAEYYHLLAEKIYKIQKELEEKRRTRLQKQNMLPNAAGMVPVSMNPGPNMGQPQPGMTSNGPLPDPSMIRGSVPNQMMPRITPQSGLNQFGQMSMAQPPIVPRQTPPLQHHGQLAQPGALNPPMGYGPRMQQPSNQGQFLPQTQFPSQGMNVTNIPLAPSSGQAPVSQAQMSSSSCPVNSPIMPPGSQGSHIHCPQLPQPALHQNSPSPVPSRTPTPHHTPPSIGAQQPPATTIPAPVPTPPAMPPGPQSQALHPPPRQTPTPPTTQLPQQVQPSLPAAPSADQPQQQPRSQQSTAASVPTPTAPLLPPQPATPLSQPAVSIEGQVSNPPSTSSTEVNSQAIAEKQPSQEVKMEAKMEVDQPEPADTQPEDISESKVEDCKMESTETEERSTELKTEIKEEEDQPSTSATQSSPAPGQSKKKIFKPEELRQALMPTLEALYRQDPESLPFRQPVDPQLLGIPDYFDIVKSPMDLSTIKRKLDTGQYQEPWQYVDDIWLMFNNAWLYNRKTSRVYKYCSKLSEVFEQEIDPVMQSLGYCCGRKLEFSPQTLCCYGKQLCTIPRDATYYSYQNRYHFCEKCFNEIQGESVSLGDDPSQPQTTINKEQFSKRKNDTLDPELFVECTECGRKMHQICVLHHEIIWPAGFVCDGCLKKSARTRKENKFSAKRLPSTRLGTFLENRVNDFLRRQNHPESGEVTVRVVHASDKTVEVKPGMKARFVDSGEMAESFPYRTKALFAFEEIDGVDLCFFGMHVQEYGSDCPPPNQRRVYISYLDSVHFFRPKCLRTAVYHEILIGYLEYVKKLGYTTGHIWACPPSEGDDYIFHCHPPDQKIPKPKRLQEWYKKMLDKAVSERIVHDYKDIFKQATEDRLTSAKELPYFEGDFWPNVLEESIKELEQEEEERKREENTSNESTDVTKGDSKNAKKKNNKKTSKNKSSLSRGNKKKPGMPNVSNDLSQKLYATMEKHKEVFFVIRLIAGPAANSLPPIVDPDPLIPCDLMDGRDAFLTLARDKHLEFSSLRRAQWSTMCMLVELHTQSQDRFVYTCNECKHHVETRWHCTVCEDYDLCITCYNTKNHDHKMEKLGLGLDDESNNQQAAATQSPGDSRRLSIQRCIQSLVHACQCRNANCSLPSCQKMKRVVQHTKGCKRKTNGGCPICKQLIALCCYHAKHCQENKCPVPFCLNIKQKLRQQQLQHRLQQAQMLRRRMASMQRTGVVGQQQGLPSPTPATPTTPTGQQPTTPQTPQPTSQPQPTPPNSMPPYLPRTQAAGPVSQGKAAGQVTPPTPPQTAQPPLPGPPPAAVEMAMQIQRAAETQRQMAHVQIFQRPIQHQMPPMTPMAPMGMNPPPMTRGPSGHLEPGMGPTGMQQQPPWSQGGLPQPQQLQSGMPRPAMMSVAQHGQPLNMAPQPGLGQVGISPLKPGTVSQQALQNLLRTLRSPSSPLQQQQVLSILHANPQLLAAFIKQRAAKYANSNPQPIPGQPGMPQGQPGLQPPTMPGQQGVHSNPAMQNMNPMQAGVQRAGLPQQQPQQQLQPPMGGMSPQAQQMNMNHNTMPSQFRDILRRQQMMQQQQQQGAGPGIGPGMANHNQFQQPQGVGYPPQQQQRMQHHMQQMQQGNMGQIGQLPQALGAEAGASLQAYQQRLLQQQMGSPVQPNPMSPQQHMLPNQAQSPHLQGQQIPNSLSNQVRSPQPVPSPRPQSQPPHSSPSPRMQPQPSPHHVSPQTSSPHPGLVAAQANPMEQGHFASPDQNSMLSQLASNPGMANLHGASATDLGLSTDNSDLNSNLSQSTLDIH

Target: Kruppel like factor 12 (human (endogenous in THP-1-derived TAMs)) (UniProt Q9Y4X4)
Test: co-IP; in THP-1-derived TAMs; normal rabbit IgG as negative control; which antibody precipitated is not told in the text shown

binding: binds
Substance: histone acetyltransferase EP300 (from UniProt Q09472 1-2414)
